Experimental data reported in article doi:10.1101/2023.05.07.539750.
No constants are given. Whether binding was seen depends on the method and setting. Binding seen in cells or lysates may run through a third protein. Some entries that bind do so weakly or less than the wild type.

By UniProt entry, the sequences of proteins in these tests, tags left out.
UniProt P20700: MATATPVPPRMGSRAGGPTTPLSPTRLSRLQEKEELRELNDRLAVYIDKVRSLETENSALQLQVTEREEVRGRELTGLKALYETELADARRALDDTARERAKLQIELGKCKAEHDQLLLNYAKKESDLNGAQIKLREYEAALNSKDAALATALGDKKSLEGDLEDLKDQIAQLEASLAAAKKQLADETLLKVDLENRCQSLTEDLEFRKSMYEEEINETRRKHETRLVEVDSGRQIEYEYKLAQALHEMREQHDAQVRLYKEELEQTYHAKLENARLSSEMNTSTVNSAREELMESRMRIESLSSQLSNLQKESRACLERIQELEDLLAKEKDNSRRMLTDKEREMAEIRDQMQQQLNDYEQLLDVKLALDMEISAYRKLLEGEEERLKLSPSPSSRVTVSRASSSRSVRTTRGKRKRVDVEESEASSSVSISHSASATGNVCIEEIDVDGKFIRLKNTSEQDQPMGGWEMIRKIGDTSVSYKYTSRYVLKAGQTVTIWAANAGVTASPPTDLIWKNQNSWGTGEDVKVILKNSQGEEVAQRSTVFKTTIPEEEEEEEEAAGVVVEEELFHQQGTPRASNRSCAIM
UniProt Q12888: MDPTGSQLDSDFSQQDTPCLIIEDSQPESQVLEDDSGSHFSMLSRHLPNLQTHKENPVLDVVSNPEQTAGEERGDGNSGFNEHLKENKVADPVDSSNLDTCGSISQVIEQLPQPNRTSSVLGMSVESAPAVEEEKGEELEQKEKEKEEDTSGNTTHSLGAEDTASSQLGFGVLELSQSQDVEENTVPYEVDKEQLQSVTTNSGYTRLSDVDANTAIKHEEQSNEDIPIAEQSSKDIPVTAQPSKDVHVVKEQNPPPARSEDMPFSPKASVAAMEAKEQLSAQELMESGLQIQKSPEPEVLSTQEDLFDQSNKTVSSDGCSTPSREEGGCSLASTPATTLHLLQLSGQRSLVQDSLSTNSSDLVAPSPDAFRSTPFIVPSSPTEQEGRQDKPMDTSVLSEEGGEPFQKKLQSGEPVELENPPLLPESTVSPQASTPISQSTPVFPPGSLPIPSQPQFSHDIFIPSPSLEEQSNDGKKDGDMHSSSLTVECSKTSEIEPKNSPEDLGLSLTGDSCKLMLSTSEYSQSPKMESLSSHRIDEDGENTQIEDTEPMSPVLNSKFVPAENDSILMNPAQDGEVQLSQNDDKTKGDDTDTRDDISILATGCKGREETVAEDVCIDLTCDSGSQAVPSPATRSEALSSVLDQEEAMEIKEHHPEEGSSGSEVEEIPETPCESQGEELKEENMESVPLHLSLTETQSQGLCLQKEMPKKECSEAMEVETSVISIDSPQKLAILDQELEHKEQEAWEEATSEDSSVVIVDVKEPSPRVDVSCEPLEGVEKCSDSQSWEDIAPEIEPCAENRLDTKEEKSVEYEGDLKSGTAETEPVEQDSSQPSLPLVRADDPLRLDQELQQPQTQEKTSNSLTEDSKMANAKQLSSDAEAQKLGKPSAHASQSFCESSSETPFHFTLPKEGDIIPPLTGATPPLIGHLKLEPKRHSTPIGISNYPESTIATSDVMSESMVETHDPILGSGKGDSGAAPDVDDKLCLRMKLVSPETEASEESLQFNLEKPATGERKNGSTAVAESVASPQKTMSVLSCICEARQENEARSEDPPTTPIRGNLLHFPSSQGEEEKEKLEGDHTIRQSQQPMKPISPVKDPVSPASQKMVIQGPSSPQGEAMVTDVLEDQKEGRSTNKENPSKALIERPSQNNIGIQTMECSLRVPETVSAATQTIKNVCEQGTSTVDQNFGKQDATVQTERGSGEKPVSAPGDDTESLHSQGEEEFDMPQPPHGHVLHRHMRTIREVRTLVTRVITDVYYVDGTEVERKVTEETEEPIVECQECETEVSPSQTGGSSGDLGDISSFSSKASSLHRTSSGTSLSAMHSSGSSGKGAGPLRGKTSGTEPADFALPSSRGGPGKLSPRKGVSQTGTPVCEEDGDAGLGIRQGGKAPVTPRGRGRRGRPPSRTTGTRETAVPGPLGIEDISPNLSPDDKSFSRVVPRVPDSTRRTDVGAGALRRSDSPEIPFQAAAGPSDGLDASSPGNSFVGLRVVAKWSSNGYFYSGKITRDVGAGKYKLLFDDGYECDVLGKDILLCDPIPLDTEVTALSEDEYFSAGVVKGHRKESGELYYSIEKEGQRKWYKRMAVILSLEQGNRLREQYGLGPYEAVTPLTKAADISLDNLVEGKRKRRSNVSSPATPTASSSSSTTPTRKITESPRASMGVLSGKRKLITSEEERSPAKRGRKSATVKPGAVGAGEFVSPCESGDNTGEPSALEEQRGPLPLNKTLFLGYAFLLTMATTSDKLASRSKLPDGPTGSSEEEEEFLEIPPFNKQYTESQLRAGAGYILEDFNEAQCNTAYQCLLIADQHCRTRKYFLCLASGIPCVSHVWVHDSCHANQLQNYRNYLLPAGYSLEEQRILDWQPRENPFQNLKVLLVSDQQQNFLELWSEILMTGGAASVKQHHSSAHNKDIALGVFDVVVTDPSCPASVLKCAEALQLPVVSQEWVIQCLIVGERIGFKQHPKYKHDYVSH

Molecular target: Lamin-B1 (LMNB1) (human (endogenous in cultured human cells; line not named for the co-IP)) (UniProt P20700)
Experiment: co-IP

binding: binds
Substance: TP53-binding protein 1 (53BP1) (from UniProt Q12888 1-1972)
